Test: Yellowing observed and odor manually evaluated after curing
Details: for Odor after curing: manually evaluated; for Yellowing after curing: observed

Row | SMILES | Odor after curing | Yellowing after curing
1 | CCCCC1(CCCC)c2ccccc2-c2ccc(C(=O)C(C)(C)N3CCOCC3)cc21 [2-methyl-1-(2-(9,9-dibutylfluorenyl))-2-(N-morpholinyl)-1-acetone] | No | No
2 | CC(C)(C(=O)c1ccc(-c2ccccc2)cc1)N1CCOCC1 [2-methyl-1-(4-biphenyl)-2-morpholinyl-1-acetone] | No | No

— patent US11560362B2, “Dibutylfluorene derivative and application thereof as photoinitiator” (HUI ZHOU HUAHONG NEW MATERIAL CO., LTD., priority 2017, dated 2023)
